Data published in patent US11253554B2, “Bacterial profile to detect fungal taxa abundance in the gut” (Virginia Commonwealth University, priority 2016, dated 2022).
At least one compound was matched to its structure with a doubt left.

Test system: fungal taxa (stool mycobiome)
Assay: Pre-PPI/post-PPI longitudinal study, stool ITS1 fungal community analysis
Assay type: in vivo, human
Conditions: pre vs post omeprazole
Procedure: The impact of PPI on fungal parameters were analyzed from a prior trial in which 40 mg of omeprazole was administered daily for 14 days in compensated outpatients with cirrhosis and healthy controls, (Bajaj J S, et al. Am J Physiol Gastrointest Liver Physiol 2014 307:G951-G957).
For all these studies, Shannon diversity indices for both bacterial and fungal taxa as well as LEFSe comparisons (Segata N, et al. Genome Biol 2011 12:R60) at baseline and the end of study were performed and compared.
Similarly, the ITS1 regions of the fungal 18S ribosomal RNA (rRNA) gene were sequenced on a PGM Ion Torrent Next-generation sequencer using Multitag fusion primers (ITS1F: 5′-[…]-3′ (SEQ ID NO:3); ITS2: 5′-[…]-3′ (SEQ ID NO:4)). Amplicons for 96 samples were sequenced together to generate >10,000×400 base reads per sample. The mycobiome is generally less diverse than the microbiome and thus required fewer reads to interrogate this community (Ghannoum M A, et al. PLoS pathogens 2010 6:e1000713). Greater than 1000 reads for bacteria and greater than 100 reads for fungi were used given the relatively lower abundance of fungal taxa as the lowest number chosen to be acceptable. […] A cutoff of 100 reads per sample was used as that was clearly above the negative control and is the break point in FIG. 6. […]

COc1ccc2[nH]c([S+]([O-])Cc3ncc(C)c(OC)c3C)nc2c1 (stereo not shown) [omeprazole]
changes in fungal taxa on LEFSe: no changes in fungal taxa
